Source: the supplement of paper PMC6078165

System: MDAMB468
Assay: relative JC-1 red fluorescence (viability) vs pre-drug, coculture with fibroblast (fraction); higher = more viable cancer cells
Method: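 JC-1 labelled TNBC cells cocultured 1:1 (1,500 cells each) with CellTrace Violet stained primary or stromal fibroblasts in 384-well plates in FluoroBrite medium, treated with one of 42 anticancer drugs at 0.1, 1, 10 or 100 uM. JC-1 red fluorescence (mitochondrial integrity in cancer cells only) was read by plate reader every 8 h for 72 h. Values are normalised to each well's pre-drug value. The stock of one drug was tenfold lower, so its dose labels may be too high.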

Nc1ncn([C@@H]2O[C@H](CO)[C@@H](O)[C@H]2O)c(=O)n1 [Azacitidine]
relative JC-1 red fluorescence
Settings	8 h	16 h	24 h	32 h	40 h	48 h	56 h	64 h	72 h
0.1 µM, coculture fibroblast: C12385	0.8463	0.862	0.872	0.859	0.837	0.884	0.872	0.887	0.909
0.1 µM, coculture fibroblast: H6013	0.876	0.883	0.8503	0.831	0.835	0.8583	0.854	0.8518	0.8086
0.1 µM, coculture fibroblast: H6019	0.859	0.867	0.855	0.835	0.818	0.842	0.801	0.789	0.772
0.1 µM, coculture fibroblast: H6076	0.9199	0.956	0.916	0.927	0.872	0.87	0.8425	0.832	0.8657
0.1 µM, coculture fibroblast: H6231	0.785	0.873	0.817	0.828	0.757	0.743	0.7	0.689	0.694
0.1 µM, coculture fibroblast: HADF	0.8834	0.877	0.832	0.828	0.808	0.816	0.787	0.798	0.7501
0.1 µM, coculture fibroblast: HCFa	0.8924	0.88	0.841	0.824	0.786	0.792	0.754	0.739	0.689
0.1 µM, coculture fibroblast: HCPF	0.8568	0.9291	0.895	0.8956	0.842	0.827	0.779	0.776	0.778
0.1 µM, coculture fibroblast: HHSteC	0.8968	0.875	0.844	0.81	0.788	0.801	0.758	0.7445	0.7001
0.1 µM, coculture fibroblast: HMF	0.851	0.943	0.891	0.8855	0.80315	0.7942	0.76	0.746	0.747
0.1 µM, coculture fibroblast: HPFa	0.872	0.8592	0.827	0.762	0.74	0.749	0.698	0.684	0.606
0.1 µM, coculture fibroblast: HUF	0.8835	0.852	0.834	0.781	0.752	0.748	0.704	0.704	0.699
0.1 µM, coculture fibroblast: Hs5	0.9826	0.96155	0.954	0.936	0.885	0.862	0.828	0.804	0.832
0.1 µM, coculture fibroblast: Hs27A	0.857	0.918	0.874	0.876	0.849	0.86	0.843	0.844	0.786
0.1 µM, coculture fibroblast: Hs343T	0.8822	0.9258	0.8731	0.863	0.786	0.774	0.731	0.716	0.717
0.1 µM, coculture fibroblast: WS1	0.87	0.855	0.843	0.82	0.808	0.821	0.82	0.833	0.849
1 µM, coculture fibroblast: C12385	0.881	0.7802	0.763	0.697	0.66	0.648	0.609	0.587	0.581
1 µM, coculture fibroblast: H6013	0.872	0.834	0.792	0.767	0.755	0.764	0.737	0.728	0.676
1 µM, coculture fibroblast: H6019	0.8185	0.816	0.786	0.734	0.702	0.69	0.633	0.609	0.586
1 µM, coculture fibroblast: H6076	0.892	0.871	0.818	0.826	0.752	0.745	0.717	0.699	0.759
1 µM, coculture fibroblast: H6231	0.856	0.943	0.834	0.831	0.773	0.754	0.708	0.687	0.678
1 µM, coculture fibroblast: HADF	0.8768	0.80089	0.7331	0.725	0.6587	0.6552	0.60198	0.5765	0.527
1 µM, coculture fibroblast: HCFa	0.855	0.8	0.721	0.681	0.609	0.585	0.532	0.496	0.4419
1 µM, coculture fibroblast: HCPF	0.8794	0.87	0.8108	0.81	0.724	0.708	0.667	0.673	0.671
1 µM, coculture fibroblast: HHSteC	0.904	0.8659	0.811	0.768	0.738	0.743	0.666	0.637	0.572
1 µM, coculture fibroblast: HMF	0.8304	0.913	0.837	0.82	0.7512	0.73	0.6756	0.66	0.655
1 µM, coculture fibroblast: HPFa	0.919	0.841	0.792	0.737	0.71	0.695	0.633	0.59682	0.5119
1 µM, coculture fibroblast: HUF	0.917	0.805	0.742	0.683	0.637	0.605	0.552	0.532	0.515
1 µM, coculture fibroblast: Hs5	0.907	0.9074	0.8446	0.8068	0.735	0.707	0.679	0.648	0.692
1 µM, coculture fibroblast: Hs27A	0.8488	0.7644	0.702	0.695	0.638	0.619	0.576	0.544	0.496
1 µM, coculture fibroblast: Hs343T	0.848	0.863	0.848	0.86	0.771	0.761	0.716	0.721	0.735
1 µM, coculture fibroblast: WS1	0.836	0.76	0.735	0.697	0.669	0.654	0.633	0.613	0.612
10 µM, coculture fibroblast: C12385	0.8303	0.758	0.679	0.609	0.569	0.561	0.52	0.483	0.457
10 µM, coculture fibroblast: H6013	0.837	0.808	0.7395	0.686	0.6571	0.663	0.637	0.624	0.581
10 µM, coculture fibroblast: H6019	0.836	0.841	0.847	0.86	0.869	0.888	0.859	0.864	0.861
10 µM, coculture fibroblast: H6076	0.867	0.849	0.822	0.845	0.791	0.798	0.787	0.805	0.855
10 µM, coculture fibroblast: H6231	0.841	0.949	0.873	0.85	0.804	0.776	0.704	0.662	0.644
10 µM, coculture fibroblast: HADF	0.8436	0.7733	0.692	0.6674	0.61	0.595	0.549	0.535	0.479
10 µM, coculture fibroblast: HCFa	0.8495	0.7972	0.717	0.678	0.614	0.61	0.564	0.529	0.482
10 µM, coculture fibroblast: HCPF	0.862	0.924	0.833	0.838	0.7788	0.75	0.693	0.661	0.649
10 µM, coculture fibroblast: HHSteC	0.87	0.829	0.783	0.745	0.705	0.719	0.665	0.646	0.589
10 µM, coculture fibroblast: HMF	0.797	0.915	0.808	0.776	0.708	0.675	0.62	0.599	0.56
10 µM, coculture fibroblast: HPFa	0.89	0.833	0.776	0.709	0.674	0.67	0.62	0.598	0.515
10 µM, coculture fibroblast: HUF	0.87833	0.793	0.736	0.673	0.634	0.615	0.58	0.561	0.538
10 µM, coculture fibroblast: Hs5	0.83	0.915	0.898	0.8388	0.77	0.735	0.687	0.645	0.65
10 µM, coculture fibroblast: Hs27A	0.8459	0.818	0.744	0.741	0.692	0.677	0.63	0.607	0.544
10 µM, coculture fibroblast: Hs343T	0.857	0.9219	0.8445	0.83	0.751	0.716	0.671	–	0.631
10 µM, coculture fibroblast: WS1	0.809	0.743	0.682	0.617	0.578	0.553	0.521	0.495	0.478
100 µM, coculture fibroblast: C12385	0.8605	0.755	0.721	0.6496	0.614	0.603	0.559	0.543	0.521
100 µM, coculture fibroblast: H6013	0.743	0.678	0.626	0.5719	0.55	0.55	0.518	0.507	0.453
100 µM, coculture fibroblast: H6019	0.758	0.6938	0.648	0.584	0.559	0.565	0.553	0.5759	0.5946
100 µM, coculture fibroblast: H6076	0.83175	0.747	0.651	0.65	0.5696	0.564	0.54	0.528	0.599
100 µM, coculture fibroblast: H6231	0.884	0.896	0.796	0.811	0.745	0.752	0.716	0.7	0.708
100 µM, coculture fibroblast: HADF	0.822	0.729	0.681	0.641	0.594	0.574	0.523	0.512	0.453
100 µM, coculture fibroblast: HCFa	0.732	0.711	0.6577	0.63308	0.596	0.59	0.546	0.514	0.472
100 µM, coculture fibroblast: HCPF	0.913	0.853	0.93	0.923	0.84	0.805	0.746	0.725	0.707
100 µM, coculture fibroblast: HHSteC	0.813	0.767	0.71	0.645	0.625	0.636	0.578	0.556	0.501
100 µM, coculture fibroblast: HMF	0.908	0.954	0.964	0.948	0.85	0.837	0.796	0.778	0.773
100 µM, coculture fibroblast: HPFa	0.845	0.759	0.735	0.663	0.649	0.646	0.584	0.575	0.505
100 µM, coculture fibroblast: HUF	0.912	0.773	0.695	0.625	0.575	0.558	0.51	0.5	0.488
100 µM, coculture fibroblast: Hs5	0.864	0.9962	0.834	0.801	0.9514	0.932	0.923	0.905	0.856
100 µM, coculture fibroblast: Hs27A	0.785	0.686	0.654	0.633	0.597	0.593	0.56	0.539	0.467
100 µM, coculture fibroblast: Hs343T	0.85167	0.88	0.796	0.77	0.679	0.661	0.624	0.612	0.611
100 µM, coculture fibroblast: WS1	0.853	0.744	0.7288	0.667	0.618	0.583	0.534	0.499	0.482

The reference is the same well before dosing, and untreated signal decays as well.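 Fibroblast labels name human fibroblasts: mostly primary ones from tissues such as uterus (C12385, HUF), lung (H6013), bone (Hs27A), adrenal (HADF) and skin (WS1), plus mammary HMF and breast cancer-associated Hs343T. The cancer cells are basal-like or mesenchymal-like triple-negative breast cancer lines. The paper calls a changed response a hit when it shifts by more than 3x the replicate standard deviation. The tissue of the other fibroblasts is not given here.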
